# From the supplement of paper PMC12823440, “Inhibitors supercharge kinase turnover through native proteolytic circuits” (Nature, 2025)
# Protein sequences, listed by entry. Tags and fused reporters are not part of them. Lines headed by an entry give the natural chain unless they say otherwise; changes in a name come on top.
# UniProt Q06187: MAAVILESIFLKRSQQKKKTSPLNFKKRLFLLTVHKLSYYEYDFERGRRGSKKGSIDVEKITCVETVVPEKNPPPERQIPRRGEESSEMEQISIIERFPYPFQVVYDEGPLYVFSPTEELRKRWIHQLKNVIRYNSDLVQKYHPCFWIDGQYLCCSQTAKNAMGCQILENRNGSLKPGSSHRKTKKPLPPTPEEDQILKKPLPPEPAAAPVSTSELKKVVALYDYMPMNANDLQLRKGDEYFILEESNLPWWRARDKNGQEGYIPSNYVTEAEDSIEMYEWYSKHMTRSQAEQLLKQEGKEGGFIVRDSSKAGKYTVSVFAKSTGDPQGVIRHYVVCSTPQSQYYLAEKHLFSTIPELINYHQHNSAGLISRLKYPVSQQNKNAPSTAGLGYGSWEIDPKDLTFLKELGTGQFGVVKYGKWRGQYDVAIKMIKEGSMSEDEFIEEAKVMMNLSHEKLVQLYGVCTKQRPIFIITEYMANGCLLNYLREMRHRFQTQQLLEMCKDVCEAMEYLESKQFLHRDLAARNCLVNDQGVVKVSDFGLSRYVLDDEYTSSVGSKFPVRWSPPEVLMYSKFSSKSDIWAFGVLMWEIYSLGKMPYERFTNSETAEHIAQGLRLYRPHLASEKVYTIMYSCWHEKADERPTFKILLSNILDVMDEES
# UniProt Q9UQM7, whole entry: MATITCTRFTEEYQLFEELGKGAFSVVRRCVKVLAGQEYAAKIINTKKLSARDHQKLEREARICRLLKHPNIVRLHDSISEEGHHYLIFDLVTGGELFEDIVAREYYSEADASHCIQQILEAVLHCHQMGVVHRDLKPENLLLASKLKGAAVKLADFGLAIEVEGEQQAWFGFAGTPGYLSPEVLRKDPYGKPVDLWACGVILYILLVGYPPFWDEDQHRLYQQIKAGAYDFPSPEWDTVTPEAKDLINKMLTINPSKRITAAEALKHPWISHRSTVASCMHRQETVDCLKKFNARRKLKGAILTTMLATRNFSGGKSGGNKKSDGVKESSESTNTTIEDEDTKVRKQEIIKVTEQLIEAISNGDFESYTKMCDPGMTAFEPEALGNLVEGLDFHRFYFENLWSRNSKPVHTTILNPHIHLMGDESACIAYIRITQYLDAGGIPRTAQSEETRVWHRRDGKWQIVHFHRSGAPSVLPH
# UniProt Q13555: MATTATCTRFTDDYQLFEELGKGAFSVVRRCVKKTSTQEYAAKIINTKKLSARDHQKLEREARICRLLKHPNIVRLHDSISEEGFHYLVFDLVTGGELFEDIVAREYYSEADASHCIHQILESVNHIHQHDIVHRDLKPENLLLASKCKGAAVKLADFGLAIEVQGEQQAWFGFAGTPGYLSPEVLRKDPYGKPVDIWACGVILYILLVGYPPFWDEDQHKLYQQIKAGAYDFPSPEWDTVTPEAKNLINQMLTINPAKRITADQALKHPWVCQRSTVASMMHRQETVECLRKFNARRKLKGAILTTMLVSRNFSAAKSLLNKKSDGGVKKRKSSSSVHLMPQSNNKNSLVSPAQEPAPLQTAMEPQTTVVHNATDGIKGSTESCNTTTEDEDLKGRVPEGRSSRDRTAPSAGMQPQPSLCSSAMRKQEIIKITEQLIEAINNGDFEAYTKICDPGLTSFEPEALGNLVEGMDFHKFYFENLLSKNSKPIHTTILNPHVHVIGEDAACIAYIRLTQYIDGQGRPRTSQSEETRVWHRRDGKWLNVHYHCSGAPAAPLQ
# UniProt Q00526: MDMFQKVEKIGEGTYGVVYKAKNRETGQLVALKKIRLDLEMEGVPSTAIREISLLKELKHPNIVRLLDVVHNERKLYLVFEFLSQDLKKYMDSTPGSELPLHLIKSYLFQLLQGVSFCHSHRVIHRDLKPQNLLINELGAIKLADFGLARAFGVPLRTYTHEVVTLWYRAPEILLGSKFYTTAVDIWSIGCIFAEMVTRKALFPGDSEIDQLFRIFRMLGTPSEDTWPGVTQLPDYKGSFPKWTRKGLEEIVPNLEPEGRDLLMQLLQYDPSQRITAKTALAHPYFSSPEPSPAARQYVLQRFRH
# UniProt P11802: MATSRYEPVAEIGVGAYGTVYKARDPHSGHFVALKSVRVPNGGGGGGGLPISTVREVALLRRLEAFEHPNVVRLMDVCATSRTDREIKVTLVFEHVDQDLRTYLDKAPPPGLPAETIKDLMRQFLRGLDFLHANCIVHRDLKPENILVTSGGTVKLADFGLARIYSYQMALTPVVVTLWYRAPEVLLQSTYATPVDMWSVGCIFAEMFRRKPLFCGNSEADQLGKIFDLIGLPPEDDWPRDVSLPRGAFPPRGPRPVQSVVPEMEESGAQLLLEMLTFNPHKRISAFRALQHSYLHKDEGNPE
# UniProt Q00535, whole entry, looked up: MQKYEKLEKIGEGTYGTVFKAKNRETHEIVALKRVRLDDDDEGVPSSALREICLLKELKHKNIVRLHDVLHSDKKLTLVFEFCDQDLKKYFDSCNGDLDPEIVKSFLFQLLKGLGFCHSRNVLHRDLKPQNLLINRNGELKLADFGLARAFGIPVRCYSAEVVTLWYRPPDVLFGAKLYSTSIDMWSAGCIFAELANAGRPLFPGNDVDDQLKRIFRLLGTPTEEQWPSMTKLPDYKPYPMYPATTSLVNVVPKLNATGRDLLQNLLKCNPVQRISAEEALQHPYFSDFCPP
# UniProt P50613: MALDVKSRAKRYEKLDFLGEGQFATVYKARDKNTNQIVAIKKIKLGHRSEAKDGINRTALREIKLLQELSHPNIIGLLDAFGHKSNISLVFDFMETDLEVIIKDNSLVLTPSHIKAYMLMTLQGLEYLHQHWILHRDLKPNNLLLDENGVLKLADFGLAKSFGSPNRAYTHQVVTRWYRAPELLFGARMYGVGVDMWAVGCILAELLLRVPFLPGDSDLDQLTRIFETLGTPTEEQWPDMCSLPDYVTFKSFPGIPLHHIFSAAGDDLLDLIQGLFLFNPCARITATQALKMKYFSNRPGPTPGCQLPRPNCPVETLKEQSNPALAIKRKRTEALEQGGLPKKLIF
# UniProt P50750, whole entry: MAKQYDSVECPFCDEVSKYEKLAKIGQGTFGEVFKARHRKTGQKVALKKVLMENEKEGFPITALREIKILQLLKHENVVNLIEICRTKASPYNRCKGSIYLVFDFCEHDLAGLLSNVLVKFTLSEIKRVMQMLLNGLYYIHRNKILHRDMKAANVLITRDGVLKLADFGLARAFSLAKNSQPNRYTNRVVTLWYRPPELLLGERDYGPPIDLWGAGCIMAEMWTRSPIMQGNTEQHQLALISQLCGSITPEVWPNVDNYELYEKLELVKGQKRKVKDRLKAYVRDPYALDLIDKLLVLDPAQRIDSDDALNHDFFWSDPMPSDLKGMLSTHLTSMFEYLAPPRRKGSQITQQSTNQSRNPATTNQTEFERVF
# UniProt O96017, whole entry: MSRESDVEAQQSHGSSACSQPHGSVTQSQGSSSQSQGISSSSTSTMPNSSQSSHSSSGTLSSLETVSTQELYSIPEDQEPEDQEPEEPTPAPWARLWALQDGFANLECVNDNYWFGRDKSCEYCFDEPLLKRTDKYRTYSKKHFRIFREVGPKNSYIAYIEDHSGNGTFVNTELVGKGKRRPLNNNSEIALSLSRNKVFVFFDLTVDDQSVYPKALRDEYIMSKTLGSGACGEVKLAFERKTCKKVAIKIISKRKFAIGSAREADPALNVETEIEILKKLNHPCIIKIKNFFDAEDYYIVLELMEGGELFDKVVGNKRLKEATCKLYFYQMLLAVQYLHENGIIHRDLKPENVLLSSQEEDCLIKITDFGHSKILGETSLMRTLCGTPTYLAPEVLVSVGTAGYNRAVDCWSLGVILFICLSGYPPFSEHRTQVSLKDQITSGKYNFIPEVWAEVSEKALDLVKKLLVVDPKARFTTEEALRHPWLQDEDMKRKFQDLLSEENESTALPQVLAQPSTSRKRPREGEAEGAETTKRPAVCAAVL
# UniProt P41240: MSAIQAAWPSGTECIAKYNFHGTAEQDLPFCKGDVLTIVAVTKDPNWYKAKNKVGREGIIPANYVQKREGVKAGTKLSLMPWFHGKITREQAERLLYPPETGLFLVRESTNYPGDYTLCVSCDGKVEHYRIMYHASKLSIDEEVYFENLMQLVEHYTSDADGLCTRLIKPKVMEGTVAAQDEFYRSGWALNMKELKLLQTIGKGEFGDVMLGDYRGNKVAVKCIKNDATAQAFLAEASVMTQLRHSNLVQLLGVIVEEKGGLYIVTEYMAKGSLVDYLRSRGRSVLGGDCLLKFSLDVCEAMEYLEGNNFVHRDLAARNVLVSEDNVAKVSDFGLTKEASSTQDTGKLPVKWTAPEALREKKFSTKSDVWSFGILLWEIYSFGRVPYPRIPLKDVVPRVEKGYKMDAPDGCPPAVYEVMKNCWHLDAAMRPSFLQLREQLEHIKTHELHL
# UniProt P48729: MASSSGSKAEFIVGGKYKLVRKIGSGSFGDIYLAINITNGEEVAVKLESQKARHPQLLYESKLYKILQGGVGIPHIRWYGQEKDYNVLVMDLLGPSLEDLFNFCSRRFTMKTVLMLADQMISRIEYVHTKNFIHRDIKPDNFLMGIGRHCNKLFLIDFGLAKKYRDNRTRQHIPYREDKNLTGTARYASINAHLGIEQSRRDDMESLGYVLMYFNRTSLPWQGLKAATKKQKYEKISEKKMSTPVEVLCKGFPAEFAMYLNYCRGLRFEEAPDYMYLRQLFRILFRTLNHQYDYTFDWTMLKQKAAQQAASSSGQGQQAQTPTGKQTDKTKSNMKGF
# UniProt P48730: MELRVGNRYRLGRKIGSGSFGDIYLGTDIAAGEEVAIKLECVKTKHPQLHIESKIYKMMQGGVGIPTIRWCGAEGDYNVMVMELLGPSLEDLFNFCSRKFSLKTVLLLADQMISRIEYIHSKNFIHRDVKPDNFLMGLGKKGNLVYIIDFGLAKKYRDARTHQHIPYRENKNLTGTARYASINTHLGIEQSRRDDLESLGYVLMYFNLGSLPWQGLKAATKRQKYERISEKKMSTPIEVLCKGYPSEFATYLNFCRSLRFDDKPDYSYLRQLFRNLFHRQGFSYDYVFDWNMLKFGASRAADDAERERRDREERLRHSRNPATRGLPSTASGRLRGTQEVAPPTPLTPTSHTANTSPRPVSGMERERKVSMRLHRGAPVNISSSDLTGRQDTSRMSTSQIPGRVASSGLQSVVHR
# UniProt Q9Y463, whole entry, looked up: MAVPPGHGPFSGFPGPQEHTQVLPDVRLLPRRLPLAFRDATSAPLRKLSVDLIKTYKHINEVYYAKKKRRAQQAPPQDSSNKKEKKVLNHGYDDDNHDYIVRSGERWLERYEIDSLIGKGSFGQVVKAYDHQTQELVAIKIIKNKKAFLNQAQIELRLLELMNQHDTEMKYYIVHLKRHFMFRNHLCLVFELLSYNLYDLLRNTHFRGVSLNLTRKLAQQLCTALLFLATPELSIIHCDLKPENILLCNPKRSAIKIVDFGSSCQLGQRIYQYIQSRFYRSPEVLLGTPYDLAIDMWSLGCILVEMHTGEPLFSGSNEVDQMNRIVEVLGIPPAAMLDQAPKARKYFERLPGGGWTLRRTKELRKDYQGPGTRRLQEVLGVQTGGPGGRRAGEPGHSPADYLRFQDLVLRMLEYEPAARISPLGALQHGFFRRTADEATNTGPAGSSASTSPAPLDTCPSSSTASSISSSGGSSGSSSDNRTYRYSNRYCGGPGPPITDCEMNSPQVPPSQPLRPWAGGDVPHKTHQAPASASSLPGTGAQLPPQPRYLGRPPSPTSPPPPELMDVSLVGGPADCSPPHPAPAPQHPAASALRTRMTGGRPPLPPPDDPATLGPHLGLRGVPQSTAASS
# UniProt Q92630: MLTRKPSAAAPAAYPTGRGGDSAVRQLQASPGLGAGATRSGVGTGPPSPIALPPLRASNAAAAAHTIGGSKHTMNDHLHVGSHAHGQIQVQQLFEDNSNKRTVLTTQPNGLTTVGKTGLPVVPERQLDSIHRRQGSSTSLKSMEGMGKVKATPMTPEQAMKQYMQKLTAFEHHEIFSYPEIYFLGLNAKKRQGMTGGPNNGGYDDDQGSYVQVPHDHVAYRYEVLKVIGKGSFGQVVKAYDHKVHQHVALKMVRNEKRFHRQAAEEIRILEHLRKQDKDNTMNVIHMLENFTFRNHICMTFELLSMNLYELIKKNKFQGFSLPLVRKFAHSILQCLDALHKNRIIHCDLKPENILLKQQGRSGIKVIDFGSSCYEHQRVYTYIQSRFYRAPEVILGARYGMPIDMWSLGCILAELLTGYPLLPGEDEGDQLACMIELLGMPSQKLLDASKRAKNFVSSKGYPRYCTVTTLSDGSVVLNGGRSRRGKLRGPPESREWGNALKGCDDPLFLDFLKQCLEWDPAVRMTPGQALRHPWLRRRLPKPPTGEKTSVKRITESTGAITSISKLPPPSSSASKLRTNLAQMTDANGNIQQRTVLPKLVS
# Where a name gives a salt, the structure may show the parent alone. This is one part of the list. The calls rarely recur for the same compound in another form.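 Kinases, fused to nanoluciferase, were expressed in K562 cells; luminescence was measured every 4 h from 2 to 18 h as percent of control (DMSO = 100%, positive control = 0%). A time point is decreased if signal falls significantly (2 sigma). Hits were called by the authors by a rule that is not shown; the count of time points alone does not decide it.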
# What was measured:
# Experiment in all cases: kinase-Nluc reporter destabilization hit call (1 = scored as downregulated) (binary); higher = compound decreases kinase abundance
# Conditions in all cases: K562, 2-18 h
# BRAF_V600E = test system: BRAF_V600E
# BTK = BTK (UniProt Q06187)
# CAMK2A = CAMK2A (UniProt Q9UQM7)
# CAMK2G = CAMK2G (UniProt Q13555)
# CDK10 = CDK10 (UniProt Q15131)
# CDK2 = CDK2 (UniProt P24941)
# CDK3 = CDK3 (UniProt Q00526)
# CDK4 = CDK4 (UniProt P11802)
# CDK5 = CDK5 (UniProt Q00535)
# CDK6 = CDK6 (UniProt Q00534)
# CDK7 = CDK7 (UniProt P50613)
# CDK9 = CDK9 (UniProt P50750)
# CHEK2 = CHEK2 (UniProt O96017)
# CSF1R = CSF1R (UniProt P07333)
# CSK = CSK (UniProt P41240)
# CSNK1A1 = CSNK1A1 (UniProt P48729)
# CSNK1D = CSNK1D (UniProt P48730)
# DDR1 = DDR1 (UniProt Q08345)
# DYRK1B = DYRK1B (UniProt Q9Y463)
# DYRK2 = DYRK2 (UniProt Q92630)
Compound,kinase-Nluc reporter destabilization hit call (BRAF_V600E; 2.5 µM),kinase-Nluc reporter destabilization hit call (BTK; 2.5 µM),kinase-Nluc reporter destabilization hit call (CAMK2A; 2.5 µM),kinase-Nluc reporter destabilization hit call (CAMK2G; 2.5 µM),kinase-Nluc reporter destabilization hit call (CDK10; 2.5 µM),kinase-Nluc reporter destabilization hit call (CDK2; 2.5 µM),kinase-Nluc reporter destabilization hit call (CDK3; 2.5 µM),kinase-Nluc reporter destabilization hit call (CDK4; 2.5 µM),kinase-Nluc reporter destabilization hit call (CDK5; 2.5 µM),kinase-Nluc reporter destabilization hit call (CDK6; 2.5 µM),kinase-Nluc reporter destabilization hit call (CDK7; 2.5 µM),kinase-Nluc reporter destabilization hit call (CDK9; 2.5 µM),kinase-Nluc reporter destabilization hit call (CHEK2; 2.5 µM),kinase-Nluc reporter destabilization hit call (CSF1R; 2.5 µM),kinase-Nluc reporter destabilization hit call (CSK; 2.5 µM),kinase-Nluc reporter destabilization hit call (CSNK1A1; 2.5 µM),kinase-Nluc reporter destabilization hit call (CSNK1D; 2.5 µM),kinase-Nluc reporter destabilization hit call (DDR1; 2.5 µM),kinase-Nluc reporter destabilization hit call (DYRK1B; 2.5 µM),kinase-Nluc reporter destabilization hit call (DYRK2; 2.5 µM),kinase-Nluc reporter destabilization hit call (BRAF_V600E; 10 µM),kinase-Nluc reporter destabilization hit call (BTK; 10 µM),kinase-Nluc reporter destabilization hit call (CAMK2A; 10 µM),kinase-Nluc reporter destabilization hit call (CAMK2G; 10 µM),kinase-Nluc reporter destabilization hit call (CDK10; 10 µM),kinase-Nluc reporter destabilization hit call (CDK2; 10 µM),kinase-Nluc reporter destabilization hit call (CDK3; 10 µM),kinase-Nluc reporter destabilization hit call (CDK4; 10 µM),kinase-Nluc reporter destabilization hit call (CDK5; 10 µM),kinase-Nluc reporter destabilization hit call (CDK6; 10 µM),kinase-Nluc reporter destabilization hit call (CDK7; 10 µM),kinase-Nluc reporter destabilization hit call (CDK9; 10 µM),kinase-Nluc reporter destabilization hit call (CHEK2; 10 µM),kinase-Nluc reporter destabilization hit call (CSF1R; 10 µM),kinase-Nluc reporter destabilization hit call (CSK; 10 µM),kinase-Nluc reporter destabilization hit call (CSNK1A1; 10 µM),kinase-Nluc reporter destabilization hit call (CSNK1D; 10 µM),kinase-Nluc reporter destabilization hit call (DDR1; 10 µM),kinase-Nluc reporter destabilization hit call (DYRK1B; 10 µM),kinase-Nluc reporter destabilization hit call (DYRK2; 10 µM)
c1cc(-c2cnn3cc(-c4ccc(OCCN5CCCCC5)cc4)cnc23)ccn1 [Dorsomorphin (dihydrochloride)],inactive: 0,inactive: 0,inactive: 0,inactive: 0,inactive: 0,inactive: 0,inactive: 0,inactive: 0,inactive: 0,inactive: 0,inactive: 0,inactive: 0,inactive: 0,inactive: 0,inactive: 0,inactive: 0,inactive: 0,inactive: 0,inactive: 0,inactive: 0,–,–,–,–,–,–,–,–,–,–,–,–,–,–,–,–,–,–,–,–
CNC(=O)c1ccccc1Nc1cc(Nc2ccc(N3CCOCC3)cc2OC)ncc1C(F)(F)F,–,–,–,–,–,–,–,–,–,–,–,–,–,–,–,–,–,–,–,–,inactive: 0,inactive: 0,inactive: 0,inactive: 0,inactive: 0,inactive: 0,inactive: 0,inactive: 0,inactive: 0,inactive: 0,inactive: 0,inactive: 0,inactive: 0,inactive: 0,inactive: 0,inactive: 0,inactive: 0,inactive: 0,inactive: 0,inactive: 0
CNC(=O)c1cc(Oc2ccc(NC(=O)Nc3ccc(Cl)c(C(F)(F)F)c3)c(F)c2)ccn1 [Regorafenib (monohydrate)],inactive: 0,inactive: 0,inactive: 0,inactive: 0,inactive: 0,inactive: 0,inactive: 0,inactive: 0,inactive: 0,inactive: 0,inactive: 0,inactive: 0,inactive: 0,inactive: 0,inactive: 0,inactive: 0,inactive: 0,inactive: 0,inactive: 0,inactive: 0,–,–,–,–,–,–,–,–,–,–,–,–,–,–,–,–,–,–,–,–
COc1cc2c(cc1OC)-c1c(C)c3ccc(OC)c(OC)c3c[n+]1CC2 [Dehydrocorydaline (chloride)],–,–,–,–,–,–,–,–,–,–,–,–,–,–,–,–,–,–,–,–,inactive: 0,inactive: 0,inactive: 0,inactive: 0,inactive: 0,inactive: 0,inactive: 0,inactive: 0,inactive: 0,inactive: 0,inactive: 0,inactive: 0,inactive: 0,inactive: 0,inactive: 0,inactive: 0,inactive: 0,inactive: 0,inactive: 0,inactive: 0
Clc1ccc(C2(c3ccc(-c4cn[nH]c4)cc3)CCNCC2)cc1 [AT7867 (dihydrochloride)],inactive: 0,inactive: 0,inactive: 0,inactive: 0,inactive: 0,inactive: 0,inactive: 0,inactive: 0,inactive: 0,inactive: 0,inactive: 0,inactive: 0,inactive: 0,inactive: 0,inactive: 0,inactive: 0,inactive: 0,inactive: 0,inactive: 0,inactive: 0,–,–,–,–,–,–,–,–,–,–,–,–,–,–,–,–,–,–,–,–
C[C@@H](N)[C@H]1CC[C@H](C(=O)Nc2ccncc2)CC1,–,–,–,–,–,–,–,–,–,–,–,–,–,–,–,–,–,–,–,–,inactive: 0,inactive: 0,inactive: 0,inactive: 0,inactive: 0,inactive: 0,inactive: 0,inactive: 0,inactive: 0,inactive: 0,inactive: 0,inactive: 0,inactive: 0,inactive: 0,inactive: 0,inactive: 0,inactive: 0,inactive: 0,inactive: 0,inactive: 0
CC(C)Oc1ccc(-c2nn([C@@H](C)c3oc4ccc(F)cc4c(=O)c3-c3cccc(F)c3)c3ncnc(N)c23)cc1F [Umbralisib],inactive: 0,inactive: 0,inactive: 0,inactive: 0,inactive: 0,inactive: 0,inactive: 0,inactive: 0,inactive: 0,inactive: 0,inactive: 0,inactive: 0,inactive: 0,inactive: 0,inactive: 0,inactive: 0,inactive: 0,inactive: 0,inactive: 0,inactive: 0,–,–,–,–,–,–,–,–,–,–,–,–,–,–,–,–,–,–,–,–
Nc1cncc(-c2cn3ccnc3c(Nc3ccc(N4CCN(C5COC5)CC4)cc3)n2)n1 [Lanraplenib],–,–,–,–,–,–,–,–,–,–,–,–,–,–,–,–,–,–,–,–,inactive: 0,inactive: 0,inactive: 0,inactive: 0,inactive: 0,inactive: 0,inactive: 0,inactive: 0,inactive: 0,inactive: 0,inactive: 0,inactive: 0,inactive: 0,inactive: 0,inactive: 0,inactive: 0,inactive: 0,inactive: 0,inactive: 0,inactive: 0
FC(F)(F)c1ccc(CNc2ccc(Cc3c[nH]c4ncc(Cl)cc34)cn2)cn1 [Pexidartinib (hydrochloride)],–,–,–,–,–,–,–,–,–,–,–,–,–,–,–,–,–,–,–,–,inactive: 0,inactive: 0,inactive: 0,inactive: 0,inactive: 0,inactive: 0,inactive: 0,inactive: 0,inactive: 0,inactive: 0,inactive: 0,inactive: 0,inactive: 0,inactive: 0,inactive: 0,inactive: 0,inactive: 0,inactive: 0,inactive: 0,inactive: 0
O=C(c1ccc(F)c(F)c1Nc1ccc(I)cc1F)N1CC(O)([C@@H]2CCCCN2)C1 [Cobimetinib (hemifumarate)],–,–,–,–,–,–,–,–,–,–,–,–,–,–,–,–,–,–,–,–,inactive: 0,inactive: 0,inactive: 0,inactive: 0,inactive: 0,inactive: 0,inactive: 0,inactive: 0,inactive: 0,inactive: 0,inactive: 0,inactive: 0,inactive: 0,inactive: 0,inactive: 0,inactive: 0,inactive: 0,inactive: 0,inactive: 0,inactive: 0
CC(C)Nc1cc(-c2c[nH]c(C(=O)N[C@H](CO)c3cccc(Cl)c3)c2)c(Cl)cn1 [Ulixertinib (hydrochloride)],–,–,–,–,–,–,–,–,–,–,–,–,–,–,–,–,–,–,–,–,inactive: 0,inactive: 0,inactive: 0,inactive: 0,inactive: 0,inactive: 0,inactive: 0,inactive: 0,inactive: 0,inactive: 0,inactive: 0,inactive: 0,inactive: 0,inactive: 0,inactive: 0,inactive: 0,inactive: 0,inactive: 0,inactive: 0,inactive: 0
COc1cc(/C=C/C(=O)O)ccc1O [Ferulic acid],–,–,–,–,–,–,–,–,–,–,–,–,–,–,–,–,–,–,–,–,inactive: 0,inactive: 0,inactive: 0,inactive: 0,inactive: 0,inactive: 0,inactive: 0,inactive: 0,inactive: 0,inactive: 0,inactive: 0,inactive: 0,inactive: 0,inactive: 0,inactive: 0,inactive: 0,inactive: 0,inactive: 0,inactive: 0,inactive: 0
N#CC[C@H](C1CCCC1)n1cc(-c2ncnc3[nH]ccc23)cn1 [Ruxolitinib (phosphate)],–,–,–,–,–,–,–,–,–,–,–,–,–,–,–,–,–,–,–,–,inactive: 0,inactive: 0,inactive: 0,inactive: 0,inactive: 0,inactive: 0,inactive: 0,inactive: 0,inactive: 0,inactive: 0,inactive: 0,inactive: 0,inactive: 0,inactive: 0,inactive: 0,inactive: 0,inactive: 0,inactive: 0,inactive: 0,inactive: 0
CC(=O)N[C@H](Cc1ccc(O)cc1)C(=O)N[C@H](CCCN=C(N)N)C(=O)N[C@H](Cc1ccccc1)C(N)=O,–,–,–,–,–,–,–,–,–,–,–,–,–,–,–,–,–,–,–,–,inactive: 0,inactive: 0,inactive: 0,inactive: 0,inactive: 0,inactive: 0,inactive: 0,inactive: 0,inactive: 0,inactive: 0,inactive: 0,inactive: 0,inactive: 0,inactive: 0,inactive: 0,inactive: 0,inactive: 0,inactive: 0,inactive: 0,inactive: 0
N#CCNC(=O)c1ccc(-c2ccnc(Nc3ccc(N4CCOCC4)cc3)n2)cc1 [Momelotinib],–,–,–,–,–,–,–,–,–,–,–,–,–,–,–,–,–,–,–,–,inactive: 0,inactive: 0,inactive: 0,inactive: 0,inactive: 0,inactive: 0,inactive: 0,inactive: 0,inactive: 0,inactive: 0,active: 1,inactive: 0,inactive: 0,inactive: 0,inactive: 0,inactive: 0,inactive: 0,inactive: 0,inactive: 0,inactive: 0
C=CC(=O)Nc1cc(Nc2nccc(-c3cn(C4CC4)c4ccccc34)n2)c(OC)cc1N(C)CCN(C)C [Almonertinib (hydrochloride)],inactive: 0,inactive: 0,inactive: 0,inactive: 0,inactive: 0,inactive: 0,inactive: 0,inactive: 0,inactive: 0,inactive: 0,inactive: 0,inactive: 0,inactive: 0,inactive: 0,inactive: 0,inactive: 0,inactive: 0,inactive: 0,inactive: 0,inactive: 0,–,–,–,–,–,–,–,–,–,–,–,–,–,–,–,–,–,–,–,–
CCCCCCCCc1ccc(CCC(N)(CO)CO)cc1 [Fingolimod],inactive: 0,inactive: 0,inactive: 0,inactive: 0,inactive: 0,inactive: 0,inactive: 0,inactive: 0,inactive: 0,inactive: 0,inactive: 0,inactive: 0,inactive: 0,inactive: 0,inactive: 0,inactive: 0,inactive: 0,inactive: 0,inactive: 0,inactive: 0,–,–,–,–,–,–,–,–,–,–,–,–,–,–,–,–,–,–,–,–
C#Cc1cccc(Nc2ncnc3cc(OCCOC)c(OCCO)cc23)c1 [Desmethyl Erlotinib (hydrochloride)],–,–,–,–,–,–,–,–,–,–,–,–,–,–,–,–,–,–,–,–,inactive: 0,inactive: 0,inactive: 0,inactive: 0,inactive: 0,inactive: 0,inactive: 0,inactive: 0,inactive: 0,inactive: 0,inactive: 0,inactive: 0,inactive: 0,inactive: 0,inactive: 0,inactive: 0,inactive: 0,inactive: 0,inactive: 0,inactive: 0
